Taken from: PubChem BioAssay AID504784 (Drosophila RNAi Screening Center, 2011)

- Test: 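Genome-wide knock-down for genes giving too much or too little stored lipid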 (primary screen)
- Cells: Drosophila Kc167 embryonic cells
- Knock-down reagent: long dsRNA against Drosophila genes, about 250 ng dsRNA per well
- Time to read-out: 4 days
- Treatment: cells fed 400 µM oleic acid bound to BSA
- Detection: 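Cells imaged and segmented; ratio of lipid droplet area to nuclear area, log-transformed, then normalised as a B-score over the screen; higher means more stored lipid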
- Direction: droplet/nuclear area B-score: higher = more stored lipid (overstorage)
The deposit covers about 17,000 reagents; this is an unselected part of those that have a named target and a result. 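Each column is one replicate's B-score; the combined score over replicates was not deposited, so single values may mislead.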 A plus sign joins genes that one reagent is predicted to hit. No sequences are given here.

gene	dsRNA	droplet/nuclear area B-score, replicate 1	droplet/nuclear area B-score, replicate 2	droplet/nuclear area B-score, replicate 3
Dr	DRSC17002	7.02	3.74	-1.49
Dr	DRSC22708	0.0663	0.207	
CG30096	DRSC21744	1.22	1.44	
Eip93F	DRSC16661	2.72	1.15	
Eip93F	DRSC21754	0.0389	-2.14	
Eip93F	DRSC23072	-0.237		
CG32483	DRSC07902	-0.427	-0.0457	
CG13954	DRSC06442	0.319	-1.14	
CG6565	DRSC02970	-0.981	1.36	
CG34112	DRSC12235	-0.815	-1.2	
dpr10	DRSC09015	1.27	1.75	
dpr10	DRSC10159	0.0106	1.22	
dpr10	DRSC10160	0.244	-0.625	
CG32564	DRSC19933	0.295	1.04	
P5CDh1	DRSC11801	-0.521	-0.946	-1.35
Ir56d	DRSC06590	2.01	-0.426	
Gbs-70E	DRSC11055	1.05	-1.45	
mtg	DRSC16256	2.23	3.4	
sgll	DRSC15442	0.67	1.59	
Syx7	DRSC11763	-1.6	-0.415	0.0536
kek5	DRSC19438	0.0663	0.935	
GABPI	DRSC00494	-0.382	-1.8	
Chs2	DRSC11830	1.06	1.38	
CG42366	DRSC02760	1.83	0.277	
CG42366	DRSC23297	-1.99	-0.183	
ringer	DRSC10455	0.289	2.38	
Osi10b	DRSC12279	1.3	1.1	
CG15710	DRSC06581	1.42	-0.693	
Nagk	DRSC15994	-1.05	6.86	
hyd	DRSC16971	-0.816	1.46	
pall	DRSC10364	0.614	1.12	
Strica	DRSC04920	0.529	0.16	
RNaseX25	DRSC11259	-1.56	0.0823	
CG8112	DRSC16377	-0.512	-0.441	
CG30373	DRSC05081	1.08	-0.756	
Tsp66A + CG42661 + CG42660	DRSC10233	-0.243	-0.192	
Sgf11	DRSC09987	1.28	-1.14	
wcy	DRSC20132	-0.312	-0.61	
roq	DRSC10227	1.01	0.443	0.213
TTLL12	DRSC06555	0.715	-0.627	
Cpr49Ad	DRSC07284	-1.07	0.256	
mwh	DRSC08382	-0.942	1.06	
Hacl	DRSC06061	2.26	3.26	
Rlb1	DRSC16826	-1.4	-1.01	
CG5188	DRSC02826	-1.4	0.629	
Vamp7	DRSC06599	-0.664	-1.58	
pch2	DRSC14368	5.05	3.54	
Prp5	DRSC19975	-2.2	0.0321	
TTLL1B	DRSC08594	-0.537	-0.405	
CG32687	DRSC18210	0.664	-0.288	-0.547
CG32687	DRSC18237	-0.516	0.331	-0.103
CG13280	DRSC02253	0.239	-0.64	
shtd	DRSC20166	1.27	-1.16	-0.731
CG42458	DRSC10335	0.0263	9.43	
CG42458	DRSC23129	-1.03	-2.08	
CG42458	DRSC23261	-1.13	-0.958	
CG10345	DRSC14138	0.731	0.0264	
Asciz	DRSC08421	0.614	1.92	
hbt	DRSC02503	1.25	3.16	
hbt	DRSC23270	-0.000145	0.362	
CG5762	DRSC15869	-0.319	0.406	
CG9517 (retired record)	DRSC20192	-0.00481	0.516	
CG9517 (retired record)	DRSC20193	-2.48	-1.1	
hubl	DRSC06825	0.427	0.412	
tok	DRSC17087	-0.93	0.307	
Nedd4	DRSC11234	0.00065	0.244	
Nedd4	DRSC21548	0.391	1.91	
Ctf4	DRSC06380	-1.11	0.73	
TyrR	DRSC16242	0.0605	-0.672	
CG44422	DRSC18885	-0.633	0.478	
CG44422	DRSC19380	2.53	-0.0274	-0.165
CG44422	DRSC19480	2.4	0.359	1.33
CG44422	DRSC23284	0.633	0.081	
GstE10	DRSC06671	1.01	3.92	
hkb	DRSC12377	-4.71	-2.09	2.23
bbc	DRSC06958	0.623	-1.25	-2.77
bbc	DRSC22309	-0.238	-1.8	
CG10338	DRSC02039	0.622	0.585	
CG8188	DRSC20090	0.691	-1.16	1.26
ttm50	DRSC18587	-3.15		
Oseg1	DRSC10776	-0.0196	-0.663	
CG14636	DRSC12223	-1.01	-0.0297	
CG3224	DRSC18295	0.359	-0.668	
